Entries after “also recorded” stand apart in the source; their conditions may differ.
Experiments:
male Kunming mice [1] = experiment: Carrageenan-induced inflammatory pain; type: in vivo, mouse (Kunming); conditions: 10 mg/kg s.c. each; AUC 0 to 90 min
Description: Carrageenan has been used in the inflammatory pain model. The mice were placed in a clear plastic chamber on the glass surface of radiant heat equipment (PL-200, Chengdu Technology & Market Co., Ltd., Chengdu, China). Radiant heat intensity was adapted to engender a basal latency within 10–20 s in naive mice. The cutoff time was set at 25 s to avoid tissue damage. On the first day, the paw withdrawal threshold was tested, and the right hind paw intraplantar injection with 20 μL of 2% λ-carrageenan was performed. After 24 h, thermal hyperalgesia was measured. Subsequently, the paw withdrawal threshold was measured three times at approximately 2-min intervals at every point after administration. Percent reversal of hyperalgesia for each animal after treatment was defined as: MPE (%) = 100 × [(postdose threshold − predose threshold)/(baseline threshold − predose threshold)].

male Kunming mice [2] = experiment: Rotarod test; type: in vivo, mouse (Kunming); conditions: 10 mg/kg s.c.; compared with saline
Description: Motor coordination and equilibrium were determined using a rotarod apparatus (ZB-200, Chengdu Technology & Market Co., Ltd., Chengdu, China). The mice were trained on a rotating rod at 16 rpm thrice daily for 2 days. Animals that remained on the rod for at least 180 s were used. The cutoff time was 300 s. On the third day, the mice received subcutaneous administration of drugs. The latency to fall off the rod was recorded 15, 30, 45, 60, and 90 min after administration. If the motor coordination of mice is impaired after administration of analgesics, the latency is reduced.

human sperm = experiment: Human sperm motility in vitro; conditions: for sperm progressive motility (PR) / sperm motility (in words): 3.5 h; for sperm progressive motility (PR): 37 °C, control 57.29 ± 2.22, mean ± S.E.M., n = 5, p < 0.05

CN1CC[C@]23c4c5ccc(O)c4O[C@H]2[C@@H](O)C=C[C@H]3[C@H]1C5 [morphine]
antinociception, AUC of MPE% compared between HAGD and morphine (male Kunming mice [1]): equipotent antinociception
endurance time on rotating rod (in words) (male Kunming mice [2]): no significant difference in the endurance time
sperm progressive motility (PR) (human sperm; 0.01 µM): 45.75 ± 2.89
sperm progressive motility (PR) (human sperm; 0.1 µM): 46.16 ± 1.15
sperm progressive motility (PR), morphine (in words) (human sperm; 0.0001, 0.001, 1, or 10 µM, 0.5, 1, 3.5, or 4 h): did not change the PR of sperm
sperm motility (in words) (human sperm; morphine 0.01 µM (1 × 10^−8 mol/L)): significantly reduced; also recorded: significant inhibition after 3.5 h
sperm motility (in words) (human sperm; morphine 0.1 µM (1 × 10^−7 mol/L)): significantly reduced human sperm motility after 3.5 h

Reference: publication PMC9824695, “A Novel Multi-Target Mu/Delta Opioid Receptor Agonist, HAGD, Produced Potent Peripheral Antinociception with Limited Side Effects in Mice and Minimal Impact on Human Sperm Motility In Vitro” (Molecules, 2023)
